Record: PubChem BioAssay AID652272 (Drosophila RNAi Screening Center, 2013)
The screen tested about 21,000 reagents; below is a random part of those that have a named target and a result. Of all reagents, 503 (2.4%) were called active. 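Raw plate light values, not normalised; calls rest on replicate z-scores that were not deposited; hits include reporter decreases as well as increases.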 Unmarked entries are inactive. A plus sign joins genes that one reagent is predicted to hit. Not stated in the record: the amount of reagent, the time to read-out.

Test: 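Finding fly genes that regulate Hedgehog signal transduction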 (primary screen)
System: Drosophila clone 8 (Cl8) cells
Reagent: long dsRNA against Drosophila genes
Measurement: 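Plate reader light from a firefly reporter under a ptc promoter fragment that responds to Hedgehog, with Renilla light as transfection reference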
Reading the numbers: firefly Hh reporter signal: higher = more ptc reporter light; Renilla reference signal: higher = more Renilla control light
Call rule: 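Called a hit if the two-replicate mean z-score lies below -2 or above +3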
Meaning of the calls: active = hit: reporter lowered or raised; inactive = not a hit

CG18581 (GeneID 39633) [DRSC10324] | firefly Hh reporter signal, replicate 1: 91120; Renilla reference signal, replicate 1: 4016; Renilla reference signal, replicate 2: 2413
eEF1beta (GeneID 45249) [DRSC07419] | firefly Hh reporter signal, replicate 1: 99702; firefly Hh reporter signal, replicate 2: 65367; Renilla reference signal, replicate 1: 4119; Renilla reference signal, replicate 2: 3077
CG34034 (GeneID 3885584) [DRSC13506] | firefly Hh reporter signal, replicate 1: 59399; firefly Hh reporter signal, replicate 2: 2.18e5; Renilla reference signal, replicate 1: 12598; Renilla reference signal, replicate 2: 4822
tra (GeneID 39849) [DRSC11405] | firefly Hh reporter signal, replicate 1: 1.25e5; Renilla reference signal, replicate 1: 3672; Renilla reference signal, replicate 2: 3461
exd (GeneID 32567) [DRSC20330] | firefly Hh reporter signal, replicate 1: 63309; firefly Hh reporter signal, replicate 2: 1.55e5; Renilla reference signal, replicate 1: 1817; Renilla reference signal, replicate 2: 6758
mRpL44 (GeneID 40656) [DRSC12306] | firefly Hh reporter signal, replicate 1: 1.29e5; firefly Hh reporter signal, replicate 2: 98692; Renilla reference signal, replicate 1: 4281; Renilla reference signal, replicate 2: 3429
Ugt37B1 (GeneID 53584) [DRSC03225] | firefly Hh reporter signal, replicate 1: 1.11e5; firefly Hh reporter signal, replicate 2: 35916; Renilla reference signal, replicate 1: 2776; Renilla reference signal, replicate 2: 3994
Lcp65Ag3 + Lcp65Ag2 + Lcp65Ag1 [DRSC11214] | firefly Hh reporter signal, replicate 1: 43755; firefly Hh reporter signal, replicate 2: 47165; Renilla reference signal, replicate 1: 5616; Renilla reference signal, replicate 2: 4664
Lcp65Ag3 + Lcp65Ag2 + Lcp65Ag1 [DRSC11215] | firefly Hh reporter signal, replicate 1: 41277; firefly Hh reporter signal, replicate 2: 57628; Renilla reference signal, replicate 1: 5034; Renilla reference signal, replicate 2: 5008
pros (GeneID 41363) [DRSC12856] | firefly Hh reporter signal, replicate 1: 46074; firefly Hh reporter signal, replicate 2: 1.98e5; Renilla reference signal, replicate 1: 8592; Renilla reference signal, replicate 2: 3772
pros (GeneID 41363) [DRSC17032] | firefly Hh reporter signal, replicate 1: 2.26e5; firefly Hh reporter signal, replicate 2: 1.42e5; Renilla reference signal, replicate 1: 7600; Renilla reference signal, replicate 2: 5353
Ccp84Ae (GeneID 40821) [DRSC12590] | firefly Hh reporter signal, replicate 1: 1.15e5; firefly Hh reporter signal, replicate 2: 7.83e5; firefly Hh reporter signal, replicate 3: 1.33e5; Renilla reference signal, replicate 1: 4332; Renilla reference signal, replicate 2: 6496
meso18E (GeneID 53448) [DRSC20351] | firefly Hh reporter signal, replicate 1: 71025; firefly Hh reporter signal, replicate 2: 1.64e5; Renilla reference signal, replicate 1: 1546; Renilla reference signal, replicate 2: 7580
rib (GeneID 44855) [DRSC07021] | firefly Hh reporter signal, replicate 1: 89976; firefly Hh reporter signal, replicate 2: 58230; Renilla reference signal, replicate 1: 5478; Renilla reference signal, replicate 2: 2681
CG2962 (GeneID 31952) [DRSC18247] | firefly Hh reporter signal, replicate 1: 1.02e5; firefly Hh reporter signal, replicate 2: 96208; Renilla reference signal, replicate 1: 2083; Renilla reference signal, replicate 2: 2486
TfIIFbeta (GeneID 41290) [DRSC16884] | firefly Hh reporter signal, replicate 1: 1.14e5; firefly Hh reporter signal, replicate 2: 2.36e5; Renilla reference signal, replicate 1: 3475; Renilla reference signal, replicate 2: 5712
CG14564 (GeneID 40425) [DRSC11725] | firefly Hh reporter signal, replicate 1: 1.59e5; firefly Hh reporter signal, replicate 2: 1.45e5; Renilla reference signal, replicate 1: 4881; Renilla reference signal, replicate 2: 7701
PolG1 (GeneID 34792) [DRSC03621] | firefly Hh reporter signal, replicate 1: 1.98e5; firefly Hh reporter signal, replicate 2: 1.02e5; Renilla reference signal, replicate 1: 5522; Renilla reference signal, replicate 2: 9187
CG18262 (GeneID 31745) [DRSC18149] | firefly Hh reporter signal, replicate 1: 86605; firefly Hh reporter signal, replicate 2: 2.08e5; Renilla reference signal, replicate 1: 3088; Renilla reference signal, replicate 2: 8385
Spf45 (GeneID 3355114) [DRSC03826] | firefly Hh reporter signal, replicate 1: 73440; firefly Hh reporter signal, replicate 2: 53164; Renilla reference signal, replicate 1: 2241; Renilla reference signal, replicate 2: 5456
niki (GeneID 42959) [DRSC14285] | firefly Hh reporter signal, replicate 1: 6.16e5; firefly Hh reporter signal, replicate 2: 1.34e5; Renilla reference signal, replicate 1: 32040; Renilla reference signal, replicate 2: 4252
slmo + CG34179 [DRSC03143] | firefly Hh reporter signal, replicate 1: 1.38e5; firefly Hh reporter signal, replicate 2: 83624; Renilla reference signal, replicate 1: 5824; Renilla reference signal, replicate 2: 3834
CG16741 (GeneID 59232) [DRSC06622] | firefly Hh reporter signal, replicate 1: 94035; firefly Hh reporter signal, replicate 2: 45159; Renilla reference signal, replicate 1: 2036; Renilla reference signal, replicate 2: 2573
CG31111 (GeneID 318595) [DRSC14649] | firefly Hh reporter signal, replicate 1: 3.09e5 (active); firefly Hh reporter signal, replicate 2: 47128; Renilla reference signal, replicate 1: 23265; Renilla reference signal, replicate 2: 3018
Zasp52 (GeneID 36740) [DRSC06269] | firefly Hh reporter signal, replicate 1: 71000; firefly Hh reporter signal, replicate 2: 35817; Renilla reference signal, replicate 1: 971; Renilla reference signal, replicate 2: 1996
Zasp52 (GeneID 36740) [DRSC07121] | firefly Hh reporter signal, replicate 1: 86220; firefly Hh reporter signal, replicate 2: 58726; Renilla reference signal, replicate 1: 1788; Renilla reference signal, replicate 2: 4141
Chrac-16 (GeneID 32166) [DRSC20343] | firefly Hh reporter signal, replicate 1: 60938; firefly Hh reporter signal, replicate 2: 27321; Renilla reference signal, replicate 1: 4304; Renilla reference signal, replicate 2: 925

Already shown: entries from further up.
Spf45 (GeneID 3355114) [DRSC03826] | firefly Hh reporter signal, replicate 1: 73440; firefly Hh reporter signal, replicate 2: 53164; Renilla reference signal, replicate 1: 2241; Renilla reference signal, replicate 2: 5456
niki (GeneID 42959) [DRSC14285] | firefly Hh reporter signal, replicate 1: 6.16e5; firefly Hh reporter signal, replicate 2: 1.34e5; Renilla reference signal, replicate 1: 32040; Renilla reference signal, replicate 2: 4252
